This test relates to SK mediated AHP currents (I-AHP) in dopaminergic neurons. In kind it is cell-based, mouse.

As to `COC(=O)C1=C(C)NC(C)=C(C(=O)OC)C1c1ccccc1[N+](=O)[O-]` [nifedipine], the I-AHP residual current came to 102±6%.

The record behind these values is patent US20030087799A1, “Modulation” (priority 2001, published 2003).
